Laboratory results taken from publication PMC11167000.

By UniProt entry, the sequences of proteins in these tests, tags left out. Where a name states a change or a piece, a line headed by the entry shows the natural chain unless it says otherwise. Residues count along the entry.
UniProt P18075, residues 293-431: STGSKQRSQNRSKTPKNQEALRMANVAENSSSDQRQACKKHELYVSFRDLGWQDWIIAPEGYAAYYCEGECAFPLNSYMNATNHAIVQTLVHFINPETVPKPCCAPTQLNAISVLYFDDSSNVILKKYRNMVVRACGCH
UniProt Q9GZX9: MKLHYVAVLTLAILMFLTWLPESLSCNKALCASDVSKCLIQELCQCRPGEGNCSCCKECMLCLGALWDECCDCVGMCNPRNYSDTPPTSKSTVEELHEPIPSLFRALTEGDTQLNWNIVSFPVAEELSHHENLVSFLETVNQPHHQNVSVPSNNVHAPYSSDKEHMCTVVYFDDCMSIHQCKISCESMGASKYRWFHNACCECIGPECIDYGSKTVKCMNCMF

Assays:
human BMP2 (human) = biological target: T1, human BMP2 (human) (UniProt P12643); assay: SPR; equilibrium binding, Biacore T200, 25 °C; BMP2, BMP7, GDF5 or CHRDL2 amine-coupled to a CM5 chip, TWSG1 proteins as analytes; 0.15 M NaCl, 20 mM HEPES pH 7.5, 2 mM CaCl2, 0.005% Tween 20; 1:1 binding isotherm; both purified
T1 sequence: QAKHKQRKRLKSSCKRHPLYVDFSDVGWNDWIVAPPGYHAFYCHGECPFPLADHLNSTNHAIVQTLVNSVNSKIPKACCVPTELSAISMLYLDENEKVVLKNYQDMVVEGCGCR

human BMP7 (human) = human BMP7 (human) (UniProt P18075); assay: as above

## TWSG1 Asp34Ala (from UniProt Q9GZX9)
Human BMP2 (human)
  binding: binds
Human BMP7 (human)
  binding: binds

Results are given in words; binding and its absence hold for the method and conditions named. A result given as binding can be weak or reduced; the word gives no strength.
